Article PMC7819943, “Rice protein-binding microarrays: a tool to detect cis-acting elements near promoter regions in rice”
Some of the results follow.

Protein sequences, listed by entry. Tags and fused reporters are not part of them.
UniProt Q0JBA9, entry or part of it: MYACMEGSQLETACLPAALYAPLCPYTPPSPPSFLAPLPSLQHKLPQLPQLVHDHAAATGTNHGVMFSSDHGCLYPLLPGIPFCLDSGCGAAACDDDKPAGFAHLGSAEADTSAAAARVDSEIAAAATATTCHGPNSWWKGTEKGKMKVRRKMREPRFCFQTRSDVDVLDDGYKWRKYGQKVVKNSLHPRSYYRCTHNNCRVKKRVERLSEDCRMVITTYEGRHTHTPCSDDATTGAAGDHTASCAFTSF

Each sequence was assayed against OsWRKY34 (Oryza sativa, UniProt Q0JBA9 1-250) (assay: protein-binding microarray (RPBM); PBS, 2% BSA, 51.3 ng/ul salmon testes DNA, 50 uM zinc acetate, 200 nM TF, 25 C, 1 h; high values mean tight binding). Settings: protein: recombinant; tags: N-terminal polyhistidine and DsRed monomer fusion (pET32a); label: CyDye5-dUTP incorporated in the synthesized complementary strand; 3' TTTTT single-stranded linker to array surface; dsDNA, one strand shown.
In short: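 An Axon 4000B scanner gave the binding signal as per-feature fluorescence intensity in arbitrary units. This followed washing of a custom Agilent array that had been incubated for 1 h at 25 °C with 200 nM protein in PBS, 2% BSA, salmon testes DNA and 50 µM zinc acetate. The proteins were transcription factors fused at the N-terminus to polyhistidine and DsRed, expressed in E. coli BL21-CodonPlus and purified on Ni–NTA.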

Sequence | binding signal
TTACTATTTACCCAAAATTATTTCATGAAATACTAATTCACGGAGTCACCTAGTGCAG | 8740 fluorescence intensity (a.u.)
ACAGCAAACAAACGTAACACCTTAACACGTCATGCAGTTTCGGAGTCACCTAGTGCAG | 9020 fluorescence intensity (a.u.)
ACTCCCGCCTCGACCACGTCCTCGCCCGCGACGACATCCCCGGAGTCACCTAGTGCAG | 8100 fluorescence intensity (a.u.)
GGGGTGCTGTTTGTGTTTGTGTGTAGTTTTTGCCAATCCACGGAGTCACCTAGTGCAG | 14900 fluorescence intensity (a.u.)
ACACTGTCCATCAGATCCTGCCAGCTTGATCCTGGCCGTCCGGAGTCACCTAGTGCAG | 10400 fluorescence intensity (a.u.)
ATCAACGACTATTCAGATAGCCAACAAGTTGACCTTGACCCGGAGTCACCTAGTGCAG | 8180 fluorescence intensity (a.u.)
TTTCTTGGTCTTTGGGTTAAATGTGGTTATGCCTTATATTCGGAGTCACCTAGTGCAG | 8260 fluorescence intensity (a.u.)
CGCAGCTTTTTTATTTAAAATAATCCCGTACGTTTTTTTTCGGAGTCACCTAGTGCAG | 9000 fluorescence intensity (a.u.)
TTGTGTTTAGATCCAGGGGTCAAAAGTTTTGACGTGTCACCGGAGTCACCTAGTGCAG | 9220 fluorescence intensity (a.u.)
AAATGCTTTTGTTCCTGTGACTCTAACCACCTACATTTAACGGAGTCACCTAGTGCAG | 9570 fluorescence intensity (a.u.)
TCCCGCACCACGCGCGCGCCGCTGAGATCCTCTTCGAGCACGGAGTCACCTAGTGCAG | 11700 fluorescence intensity (a.u.)
CCTTTTTCTTAACTTCCAACACACTAGGGATCCAGAACACCGGAGTCACCTAGTGCAG | 8380 fluorescence intensity (a.u.)
AGTCCGCCTCGGTCTCTTCTTCTTCTTCTTCCCAATTTGCCGGAGTCACCTAGTGCAG | 11300 fluorescence intensity (a.u.)
TGCATGCCCTGCTTTATCTTCTTCTTCTTCTGGTCAAATACGGAGTCACCTAGTGCAG | 10400 fluorescence intensity (a.u.)
ACTTTAATTCTTTTCCATCACATCAACCTGTTATACACACCGGAGTCACCTAGTGCAG | 12700 fluorescence intensity (a.u.)
GACTTTTTAGCATATGTTTGACCGTTCGTCTTATTCAAAACGGAGTCACCTAGTGCAG | 10600 fluorescence intensity (a.u.)
CCAATCACAAGCAACGCCCACTCGCTACTACTACTCCACTCGGAGTCACCTAGTGCAG | 9060 fluorescence intensity (a.u.)
CCTCACACACACCTCTCCTTCACCCTAACCTTTTCTTTTTCGGAGTCACCTAGTGCAG | 8270 fluorescence intensity (a.u.)
GATGGGCAGCAGTTCTTCGTCGTCATGTGGCCCGCCCAAACGGAGTCACCTAGTGCAG | 8530 fluorescence intensity (a.u.)
TACCGACTCCTCCAACTACCAAAACCGGTACAAACTATATCGGAGTCACCTAGTGCAG | 9900 fluorescence intensity (a.u.)
ATTCTCTGAGATAAGTCGCTTGTTATTCTTATTGGATCTCCGGAGTCACCTAGTGCAG | 9450 fluorescence intensity (a.u.)

Not a retest: entries from further up.
Sequence | binding signal
ATCAACGACTATTCAGATAGCCAACAAGTTGACCTTGACCCGGAGTCACCTAGTGCAG | 8180 fluorescence intensity (a.u.)
TTTCTTGGTCTTTGGGTTAAATGTGGTTATGCCTTATATTCGGAGTCACCTAGTGCAG | 8260 fluorescence intensity (a.u.)
CGCAGCTTTTTTATTTAAAATAATCCCGTACGTTTTTTTTCGGAGTCACCTAGTGCAG | 9000 fluorescence intensity (a.u.)
TTGTGTTTAGATCCAGGGGTCAAAAGTTTTGACGTGTCACCGGAGTCACCTAGTGCAG | 9220 fluorescence intensity (a.u.)
AAATGCTTTTGTTCCTGTGACTCTAACCACCTACATTTAACGGAGTCACCTAGTGCAG | 9570 fluorescence intensity (a.u.)

(continued)

Sequence | binding signal
ATTTTCATTTTCATTTTCTGTTTTCCTTTCTTTTTTTGGACGGAGTCACCTAGTGCAG | 9050 fluorescence intensity (a.u.)
TTCACCCTTTTCCGGTCGTCTTCCTCGTCTCGCTCCCCTGCGGAGTCACCTAGTGCAG | 9810 fluorescence intensity (a.u.)
ATCTCATCGATCCTGCTCACCCTTCCTCTCTCTCCTCCTCCGGAGTCACCTAGTGCAG | 9090 fluorescence intensity (a.u.)
TGGCCACGGAGGTGGAGGCGGGGAAGGGCGCCGCGGCGGTCGGAGTCACCTAGTGCAG | 8160 fluorescence intensity (a.u.)
GTTGTATAGGTTGGTTTTTTATGTATGACGCCGTTGACTTCGGAGTCACCTAGTGCAG | 17100 fluorescence intensity (a.u.)
CAATTTGACTAGCTTAGCTAGTTTGACCAATCTTCAGCTTCGGAGTCACCTAGTGCAG | 8770 fluorescence intensity (a.u.)
CCTATTTTTAGTATATATATATATCACATCTCGTACTCTGCGGAGTCACCTAGTGCAG | 8590 fluorescence intensity (a.u.)
GACCGTTTGATTTATTGTCTGAAACCATGTTCCTGAGTCGCGGAGTCACCTAGTGCAG | 10300 fluorescence intensity (a.u.)
ACATGGCGTAAAGGTGACAAACAAAATTCTCTCTATTATCCGGAGTCACCTAGTGCAG | 8620 fluorescence intensity (a.u.)
CCGCGGCGTTTTGTGTGGCCTTCGTCTCGTGTTATCTCTTCGGAGTCACCTAGTGCAG | 10100 fluorescence intensity (a.u.)
CAAGGCATGTTTGTCACGGCTCCAGCTCCAGCTTCACCTACGGAGTCACCTAGTGCAG | 8530 fluorescence intensity (a.u.)
CGTCTACATGTACTTCGAATTTTCCGTTTGAACTGCAACACGGAGTCACCTAGTGCAG | 8120 fluorescence intensity (a.u.)
TAATGTATGACGTCGTTGACTTTTTGTTAAACGTTTGATCCGGAGTCACCTAGTGCAG | 15600 fluorescence intensity (a.u.)
CTCCCACGCCTCACACACTGACACACATATGGGCATAAATCGGAGTCACCTAGTGCAG | 8320 fluorescence intensity (a.u.)
TTGTACTCGCACTAACTGATCCACAGCGCGCACCGGTCTCCGGAGTCACCTAGTGCAG | 9180 fluorescence intensity (a.u.)
CCGCACATGTCAGCCTACTAACCCACCTGCCAAATCGCCCCGGAGTCACCTAGTGCAG | 8590 fluorescence intensity (a.u.)
TCGTCCTCGGTCTGTTGACCTCCTCCCAAAGCCCCTTGTCCGGAGTCACCTAGTGCAG | 8100 fluorescence intensity (a.u.)
CTTTGTTTCTTTCTCATTTCTTCATGTAAATTGTAGTGCTCGGAGTCACCTAGTGCAG | 12700 fluorescence intensity (a.u.)
CATTCGTTCAGTTATTGTTTTTTTTTCTTTGATCGGAGACCGGAGTCACCTAGTGCAG | 8610 fluorescence intensity (a.u.)
GATCACTAGCCTAGTAGCCTAGCTTGCTAACCATCTTTTCCGGAGTCACCTAGTGCAG | 10000 fluorescence intensity (a.u.)
AATGTCGCACACTCACTTGCCACTCTCCCTCGCAATCTTCCGGAGTCACCTAGTGCAG | 9770 fluorescence intensity (a.u.)

Sequence | binding signal
TGGACTATAGTGTCATCTTCCAATATTCCTTATTTTTTAACGGAGTCACCTAGTGCAG | 8390 fluorescence intensity (a.u.)
TGTAATGCTGCCGTTAGATCTGATAGTGGTGGGGTGGTATCGGAGTCACCTAGTGCAG | 14600 fluorescence intensity (a.u.)
GACATACAATTCTATTATATTCTTATATTTTTCTTATTTCCGGAGTCACCTAGTGCAG | 9760 fluorescence intensity (a.u.)
TTTTTTTAAAATTTGCATGTTTTTTGGTCGTGTAAAATTTCGGAGTCACCTAGTGCAG | 8290 fluorescence intensity (a.u.)
GTCTCCTCACTGCTACTGTCAGCCTGATCGAAGAAGTAATCGGAGTCACCTAGTGCAG | 9250 fluorescence intensity (a.u.)
TAGGAGGAGAGAGAACGGGAGGAGATGGGGTAGGAAGGGGCGGAGTCACCTAGTGCAG | 8940 fluorescence intensity (a.u.)
GCTTTCTTGAGTTCCATCTTTTTTCGTGCCTCATCTCACACGGAGTCACCTAGTGCAG | 8530 fluorescence intensity (a.u.)
GGCTGCTTCAGGGGCGTGGGAGAGGTTTGGGGTTGGTTCACGGAGTCACCTAGTGCAG | 16000 fluorescence intensity (a.u.)
AACACTTCAGAATCCTTGTTTGTGGTGGGGATGGGACTGTCGGAGTCACCTAGTGCAG | 14400 fluorescence intensity (a.u.)
TCAAACTTATCTTATCACTACTACGACCTTCTCATTTAAACGGAGTCACCTAGTGCAG | 8210 fluorescence intensity (a.u.)
CCTGGCTGTCTTCCCCAATTCTCCCTTTTCCTTCCCCAATCGGAGTCACCTAGTGCAG | 10900 fluorescence intensity (a.u.)
ATGCCCCACTGTCCTCCTTTTCGAAGCCAGCTATGCTCCACGGAGTCACCTAGTGCAG | 8720 fluorescence intensity (a.u.)
ATATTTGACGACGTTGATTTTTTTTAAATATGTTTGACCGCGGAGTCACCTAGTGCAG | 9090 fluorescence intensity (a.u.)
TCTCCTGTACGCACATCAGGCCGACATGAATGCATCTCAACGGAGTCACCTAGTGCAG | 8380 fluorescence intensity (a.u.)
TGCCATCTTGACCCACATGTCATTGGGTTCTATATGCCATCGGAGTCACCTAGTGCAG | 8940 fluorescence intensity (a.u.)
ACTACACGGCTTTTATTTTGTCATATATTCTCCTGTATTACGGAGTCACCTAGTGCAG | 10500 fluorescence intensity (a.u.)
GCTTTTCTTGCTTGCTGCAATGGCCGCCTCCTCCGCGCAGCGGAGTCACCTAGTGCAG | 8480 fluorescence intensity (a.u.)
TGTCCACTTTGTAAGCCAGGGATAGTCGTACCGCCAAACACGGAGTCACCTAGTGCAG | 8680 fluorescence intensity (a.u.)
CTTTTTACAATTATTTTGCACATTGATTTTTTTTCTGTTTCGGAGTCACCTAGTGCAG | 11000 fluorescence intensity (a.u.)
CGTTGCTTGCTCTGATATATTTGTTGACTTGCCTCAAAGTCGGAGTCACCTAGTGCAG | 12900 fluorescence intensity (a.u.)
ATCCCTTCCTCACTTAACTGTGTTTGGGATGAGGGTTGGGCGGAGTCACCTAGTGCAG | 9080 fluorescence intensity (a.u.)

Sequence | binding signal
CTTGTCATAGTGTGTTATCTAGGTCCCAAATCACCACAGTCGGAGTCACCTAGTGCAG | 9250 fluorescence intensity (a.u.)
TCGGGTCTAACTATCCCCTTTTCGGGTTTTTTTTTTGTTTCGGAGTCACCTAGTGCAG | 8230 fluorescence intensity (a.u.)
CTTGGACCCACTTAATATGTTATATGGCTATTTCTAGTCACGGAGTCACCTAGTGCAG | 8220 fluorescence intensity (a.u.)
AAGTTCGAATCCCTTCCAACTCATGTTTTCTCACTATCTTCGGAGTCACCTAGTGCAG | 8300 fluorescence intensity (a.u.)
CCCGCCTCCGATCAAGCTTCTCCGGCTTCCGATTCTCCCTCGGAGTCACCTAGTGCAG | 10200 fluorescence intensity (a.u.)
AACTAGATTCTATATGTTGGTCTTACTGTTCTAGTTCTAGCGGAGTCACCTAGTGCAG | 9090 fluorescence intensity (a.u.)
AGCGGTTTCTTGGTTGGGGTTTAGTGTCTGCATTGGATATCGGAGTCACCTAGTGCAG | 18200 fluorescence intensity (a.u.)
GACATCGCCGCTCCTCCTATCGCGCTCCTCCCCGCCGGCACGGAGTCACCTAGTGCAG | 9430 fluorescence intensity (a.u.)
ATAGGGGATATGTAAGTGTGTTGCTTGTGCTATATATTGCCGGAGTCACCTAGTGCAG | 8460 fluorescence intensity (a.u.)
GCTCCGCATCTCGCTGTTCCTTTCCTGGTTTTTGTGAAGCCGGAGTCACCTAGTGCAG | 9940 fluorescence intensity (a.u.)
CACGCCCCTTTGGTCCCACCATTTCTTATTACCCTTATATCGGAGTCACCTAGTGCAG | 8060 fluorescence intensity (a.u.)
ACGTTTGGCTTATACTCATTCTTGCAATAATCAATCAACCCGGAGTCACCTAGTGCAG | 9800 fluorescence intensity (a.u.)
TACAGTCAACTGTGTGTTGATACGTACCGCGCCATCTCTCCGGAGTCACCTAGTGCAG | 13000 fluorescence intensity (a.u.)
TCTTTCCCATATCTCTCTCTACCCACGCACTTTTTTCTTTCGGAGTCACCTAGTGCAG | 8830 fluorescence intensity (a.u.)
CTGCCTACTTGCCACTTGTACGCAAGAATCCATCGTCCCTCGGAGTCACCTAGTGCAG | 8060 fluorescence intensity (a.u.)
CTAAGGTCTAATATGTGCACTGGTTTTCGTTTCGTGTATTCGGAGTCACCTAGTGCAG | 8620 fluorescence intensity (a.u.)
GAGCTCCTGTTGGTCGGGGACGTTTCGCGTTGGTTCCTCTCGGAGTCACCTAGTGCAG | 12000 fluorescence intensity (a.u.)
GACTCTCCACAACCATCTCATCTCCTTCACCTTCACCTTCCGGAGTCACCTAGTGCAG | 8800 fluorescence intensity (a.u.)
GTCTCTCACTTTTCTCTCGTAGATCGGCCGACGGGTGGGGCGGAGTCACCTAGTGCAG | 11100 fluorescence intensity (a.u.)
GAACGTGGAGGCTTTTTTTTCTATTCCTTTAATAATATAACGGAGTCACCTAGTGCAG | 8990 fluorescence intensity (a.u.)
CCCTCCGTTTCAAAATGTTTGACACCGTTGACTTTTTAATCGGAGTCACCTAGTGCAG | 14900 fluorescence intensity (a.u.)
